{"source": "PubChem BioAssay AID504808 | Drosophila RNAi Screening Center | 2011", "aim": "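Genes whose loss lifts activity of an E2F-responsive reporter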 (primary screen)", "cell system": "Drosophila S2 cells", "knock-down reagent": "long dsRNA against Drosophila genes", "read-out": "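Firefly luciferase driven by E2F sites, normalised to Renilla luciferase on the same minimal promoter, measured by plate reader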", "direction": "E2F firefly: higher = more E2F reporter activity; Renilla normaliser: higher = more normaliser reporter signal", "rule for the call": "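a knock-down counted as active when the firefly/Renilla E2F signal rose above 50%, a threshold chosen arbitrarily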", "note": "The screen tested about 21,000 reagents; below is an unselected part of those with a known target gene and a result. In the full data, 18 (0.084%) got an active call. 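Raw counts without plate normalisation, one of two replicates; the ratio scores behind the calls were not deposited.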 Unmarked entries are inactive. Not given: the amount of reagent, the time to read-out."}
{"gene": "TAF1B", "dsRNA": "DRSC16001", "E2F firefly, rep 1": 76378, "Renilla normaliser, rep 1": 3323}
{"gene": "Rbp", "dsRNA": "DRSC15724", "E2F firefly, rep 1": 63526, "Renilla normaliser, rep 1": 23405}
{"gene": "Rbp", "dsRNA": "DRSC15726", "E2F firefly, rep 1": 1.01e5, "Renilla normaliser, rep 1": 4997}
{"gene": "CG15046", "dsRNA": "DRSC19622", "E2F firefly, rep 1": 1.45e5, "Renilla normaliser, rep 1": 5797}
{"gene": "CG5342", "dsRNA": "DRSC15776", "E2F firefly, rep 1": 1.53e5, "Renilla normaliser, rep 1": 6619}
{"gene": "l(3)80Fj", "dsRNA": "DRSC20986", "E2F firefly, rep 1": 80802, "Renilla normaliser, rep 1": 2988}
{"gene": "l(3)80Fj", "dsRNA": "DRSC20989", "E2F firefly, rep 1": 1.52e5, "Renilla normaliser, rep 1": 6562}

Next part (2 carried over from the part before).
{"gene": "l(3)80Fj", "dsRNA": "DRSC20986", "E2F firefly, rep 1": 80802, "Renilla normaliser, rep 1": 2988}
{"gene": "l(3)80Fj", "dsRNA": "DRSC20989", "E2F firefly, rep 1": 1.52e5, "Renilla normaliser, rep 1": 6562}
{"gene": "CG3650", "dsRNA": "DRSC04401", "E2F firefly, rep 1": 1.01e5, "Renilla normaliser, rep 1": 4268}
{"gene": "atms", "dsRNA": "DRSC12310", "E2F firefly, rep 1": 83188, "Renilla normaliser, rep 1": 3731}
{"gene": "CG3168", "dsRNA": "DRSC18287", "E2F firefly, rep 1": 7176, "Renilla normaliser, rep 1": 796}
{"gene": "CG11322", "dsRNA": "DRSC02142", "E2F firefly, rep 1": 1.42e5, "Renilla normaliser, rep 1": 4891}
{"gene": "CG11192", "dsRNA": "DRSC06057", "E2F firefly, rep 1": 1.38e5, "Renilla normaliser, rep 1": 4894}
